From patent publication US11311562B2, “Methods for reducing the incidence of oxidative stress using human milk oligosaccharides, vitamin c and anti-inflammatory agents” (priority 2010, dated 2022)
Some entries share one result that the patent states for a list of compounds. At least one compound was matched to its structure with a doubt left.

Tested on: H1N1 influenza virus
Assay type: cell-based
Conditions: 10 mg/mL HMO; MDCK cells; FIG. 1

CC(=O)N[C@H]1[C@H]([C@H](O)[C@H](O)CO)O[C@@](O[C@H]2[C@@H](O)[C@@H](CO)O[C@@H](O[C@H]3[C@H](O)[C@@H](O)C(O)O[C@@H]3CO)[C@@H]2O)(C(=O)O)C[C@@H]1O (stereo partly shown) [3′SL, 3′-sialyllactose]
inhibition of virus infectivity: greater than 90%
